Like-named read-outs stand apart in the source and are kept apart here. These are yes or no findings as the source states them, for the method shown. In cells and extracts the contact can be indirect. A yes stands for co-enrichment or nearness to the bait. Other partners may have been found.
Assays:
Assay in all cases: affinity purification with mass spectrometry; lysate of conjugating cells 5 h post-pairing on anti-HA agarose beads overnight at 4 °C, seven washes with TBST; interactors: peptide ratio to wild-type cells more than 4
[1] = biological target: Caf1b-HA (Tetrahymena thermophila) (UniProt I7MFN1)
[2] = biological target: Hir1-HA (Tetrahymena thermophila) (UniProt Q23DP2)
[3] = biological target: Caf1b-HA (Tetrahymena thermophila) (UniProt I7MFN1); remark: listed apart in the source

Chains of the proteins cited; added tags and fusions are not shown. Lines headed by an entry give the natural chain unless they say otherwise; changes in a name come on top.
UniProt I7MFN1: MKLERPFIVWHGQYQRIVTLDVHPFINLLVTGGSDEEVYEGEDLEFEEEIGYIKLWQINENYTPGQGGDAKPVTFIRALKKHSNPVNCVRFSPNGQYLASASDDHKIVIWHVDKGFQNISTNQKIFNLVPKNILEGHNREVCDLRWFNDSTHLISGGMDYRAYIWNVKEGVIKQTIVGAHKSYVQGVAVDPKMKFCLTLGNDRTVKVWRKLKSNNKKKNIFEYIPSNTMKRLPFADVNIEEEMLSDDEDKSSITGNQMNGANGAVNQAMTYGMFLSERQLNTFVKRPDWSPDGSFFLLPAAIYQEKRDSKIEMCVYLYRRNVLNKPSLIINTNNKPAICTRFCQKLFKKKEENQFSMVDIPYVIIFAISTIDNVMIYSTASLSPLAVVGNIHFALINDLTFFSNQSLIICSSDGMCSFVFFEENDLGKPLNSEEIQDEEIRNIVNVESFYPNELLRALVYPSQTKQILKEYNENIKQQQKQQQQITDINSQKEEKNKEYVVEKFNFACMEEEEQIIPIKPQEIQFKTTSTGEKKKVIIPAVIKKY
UniProt O76506: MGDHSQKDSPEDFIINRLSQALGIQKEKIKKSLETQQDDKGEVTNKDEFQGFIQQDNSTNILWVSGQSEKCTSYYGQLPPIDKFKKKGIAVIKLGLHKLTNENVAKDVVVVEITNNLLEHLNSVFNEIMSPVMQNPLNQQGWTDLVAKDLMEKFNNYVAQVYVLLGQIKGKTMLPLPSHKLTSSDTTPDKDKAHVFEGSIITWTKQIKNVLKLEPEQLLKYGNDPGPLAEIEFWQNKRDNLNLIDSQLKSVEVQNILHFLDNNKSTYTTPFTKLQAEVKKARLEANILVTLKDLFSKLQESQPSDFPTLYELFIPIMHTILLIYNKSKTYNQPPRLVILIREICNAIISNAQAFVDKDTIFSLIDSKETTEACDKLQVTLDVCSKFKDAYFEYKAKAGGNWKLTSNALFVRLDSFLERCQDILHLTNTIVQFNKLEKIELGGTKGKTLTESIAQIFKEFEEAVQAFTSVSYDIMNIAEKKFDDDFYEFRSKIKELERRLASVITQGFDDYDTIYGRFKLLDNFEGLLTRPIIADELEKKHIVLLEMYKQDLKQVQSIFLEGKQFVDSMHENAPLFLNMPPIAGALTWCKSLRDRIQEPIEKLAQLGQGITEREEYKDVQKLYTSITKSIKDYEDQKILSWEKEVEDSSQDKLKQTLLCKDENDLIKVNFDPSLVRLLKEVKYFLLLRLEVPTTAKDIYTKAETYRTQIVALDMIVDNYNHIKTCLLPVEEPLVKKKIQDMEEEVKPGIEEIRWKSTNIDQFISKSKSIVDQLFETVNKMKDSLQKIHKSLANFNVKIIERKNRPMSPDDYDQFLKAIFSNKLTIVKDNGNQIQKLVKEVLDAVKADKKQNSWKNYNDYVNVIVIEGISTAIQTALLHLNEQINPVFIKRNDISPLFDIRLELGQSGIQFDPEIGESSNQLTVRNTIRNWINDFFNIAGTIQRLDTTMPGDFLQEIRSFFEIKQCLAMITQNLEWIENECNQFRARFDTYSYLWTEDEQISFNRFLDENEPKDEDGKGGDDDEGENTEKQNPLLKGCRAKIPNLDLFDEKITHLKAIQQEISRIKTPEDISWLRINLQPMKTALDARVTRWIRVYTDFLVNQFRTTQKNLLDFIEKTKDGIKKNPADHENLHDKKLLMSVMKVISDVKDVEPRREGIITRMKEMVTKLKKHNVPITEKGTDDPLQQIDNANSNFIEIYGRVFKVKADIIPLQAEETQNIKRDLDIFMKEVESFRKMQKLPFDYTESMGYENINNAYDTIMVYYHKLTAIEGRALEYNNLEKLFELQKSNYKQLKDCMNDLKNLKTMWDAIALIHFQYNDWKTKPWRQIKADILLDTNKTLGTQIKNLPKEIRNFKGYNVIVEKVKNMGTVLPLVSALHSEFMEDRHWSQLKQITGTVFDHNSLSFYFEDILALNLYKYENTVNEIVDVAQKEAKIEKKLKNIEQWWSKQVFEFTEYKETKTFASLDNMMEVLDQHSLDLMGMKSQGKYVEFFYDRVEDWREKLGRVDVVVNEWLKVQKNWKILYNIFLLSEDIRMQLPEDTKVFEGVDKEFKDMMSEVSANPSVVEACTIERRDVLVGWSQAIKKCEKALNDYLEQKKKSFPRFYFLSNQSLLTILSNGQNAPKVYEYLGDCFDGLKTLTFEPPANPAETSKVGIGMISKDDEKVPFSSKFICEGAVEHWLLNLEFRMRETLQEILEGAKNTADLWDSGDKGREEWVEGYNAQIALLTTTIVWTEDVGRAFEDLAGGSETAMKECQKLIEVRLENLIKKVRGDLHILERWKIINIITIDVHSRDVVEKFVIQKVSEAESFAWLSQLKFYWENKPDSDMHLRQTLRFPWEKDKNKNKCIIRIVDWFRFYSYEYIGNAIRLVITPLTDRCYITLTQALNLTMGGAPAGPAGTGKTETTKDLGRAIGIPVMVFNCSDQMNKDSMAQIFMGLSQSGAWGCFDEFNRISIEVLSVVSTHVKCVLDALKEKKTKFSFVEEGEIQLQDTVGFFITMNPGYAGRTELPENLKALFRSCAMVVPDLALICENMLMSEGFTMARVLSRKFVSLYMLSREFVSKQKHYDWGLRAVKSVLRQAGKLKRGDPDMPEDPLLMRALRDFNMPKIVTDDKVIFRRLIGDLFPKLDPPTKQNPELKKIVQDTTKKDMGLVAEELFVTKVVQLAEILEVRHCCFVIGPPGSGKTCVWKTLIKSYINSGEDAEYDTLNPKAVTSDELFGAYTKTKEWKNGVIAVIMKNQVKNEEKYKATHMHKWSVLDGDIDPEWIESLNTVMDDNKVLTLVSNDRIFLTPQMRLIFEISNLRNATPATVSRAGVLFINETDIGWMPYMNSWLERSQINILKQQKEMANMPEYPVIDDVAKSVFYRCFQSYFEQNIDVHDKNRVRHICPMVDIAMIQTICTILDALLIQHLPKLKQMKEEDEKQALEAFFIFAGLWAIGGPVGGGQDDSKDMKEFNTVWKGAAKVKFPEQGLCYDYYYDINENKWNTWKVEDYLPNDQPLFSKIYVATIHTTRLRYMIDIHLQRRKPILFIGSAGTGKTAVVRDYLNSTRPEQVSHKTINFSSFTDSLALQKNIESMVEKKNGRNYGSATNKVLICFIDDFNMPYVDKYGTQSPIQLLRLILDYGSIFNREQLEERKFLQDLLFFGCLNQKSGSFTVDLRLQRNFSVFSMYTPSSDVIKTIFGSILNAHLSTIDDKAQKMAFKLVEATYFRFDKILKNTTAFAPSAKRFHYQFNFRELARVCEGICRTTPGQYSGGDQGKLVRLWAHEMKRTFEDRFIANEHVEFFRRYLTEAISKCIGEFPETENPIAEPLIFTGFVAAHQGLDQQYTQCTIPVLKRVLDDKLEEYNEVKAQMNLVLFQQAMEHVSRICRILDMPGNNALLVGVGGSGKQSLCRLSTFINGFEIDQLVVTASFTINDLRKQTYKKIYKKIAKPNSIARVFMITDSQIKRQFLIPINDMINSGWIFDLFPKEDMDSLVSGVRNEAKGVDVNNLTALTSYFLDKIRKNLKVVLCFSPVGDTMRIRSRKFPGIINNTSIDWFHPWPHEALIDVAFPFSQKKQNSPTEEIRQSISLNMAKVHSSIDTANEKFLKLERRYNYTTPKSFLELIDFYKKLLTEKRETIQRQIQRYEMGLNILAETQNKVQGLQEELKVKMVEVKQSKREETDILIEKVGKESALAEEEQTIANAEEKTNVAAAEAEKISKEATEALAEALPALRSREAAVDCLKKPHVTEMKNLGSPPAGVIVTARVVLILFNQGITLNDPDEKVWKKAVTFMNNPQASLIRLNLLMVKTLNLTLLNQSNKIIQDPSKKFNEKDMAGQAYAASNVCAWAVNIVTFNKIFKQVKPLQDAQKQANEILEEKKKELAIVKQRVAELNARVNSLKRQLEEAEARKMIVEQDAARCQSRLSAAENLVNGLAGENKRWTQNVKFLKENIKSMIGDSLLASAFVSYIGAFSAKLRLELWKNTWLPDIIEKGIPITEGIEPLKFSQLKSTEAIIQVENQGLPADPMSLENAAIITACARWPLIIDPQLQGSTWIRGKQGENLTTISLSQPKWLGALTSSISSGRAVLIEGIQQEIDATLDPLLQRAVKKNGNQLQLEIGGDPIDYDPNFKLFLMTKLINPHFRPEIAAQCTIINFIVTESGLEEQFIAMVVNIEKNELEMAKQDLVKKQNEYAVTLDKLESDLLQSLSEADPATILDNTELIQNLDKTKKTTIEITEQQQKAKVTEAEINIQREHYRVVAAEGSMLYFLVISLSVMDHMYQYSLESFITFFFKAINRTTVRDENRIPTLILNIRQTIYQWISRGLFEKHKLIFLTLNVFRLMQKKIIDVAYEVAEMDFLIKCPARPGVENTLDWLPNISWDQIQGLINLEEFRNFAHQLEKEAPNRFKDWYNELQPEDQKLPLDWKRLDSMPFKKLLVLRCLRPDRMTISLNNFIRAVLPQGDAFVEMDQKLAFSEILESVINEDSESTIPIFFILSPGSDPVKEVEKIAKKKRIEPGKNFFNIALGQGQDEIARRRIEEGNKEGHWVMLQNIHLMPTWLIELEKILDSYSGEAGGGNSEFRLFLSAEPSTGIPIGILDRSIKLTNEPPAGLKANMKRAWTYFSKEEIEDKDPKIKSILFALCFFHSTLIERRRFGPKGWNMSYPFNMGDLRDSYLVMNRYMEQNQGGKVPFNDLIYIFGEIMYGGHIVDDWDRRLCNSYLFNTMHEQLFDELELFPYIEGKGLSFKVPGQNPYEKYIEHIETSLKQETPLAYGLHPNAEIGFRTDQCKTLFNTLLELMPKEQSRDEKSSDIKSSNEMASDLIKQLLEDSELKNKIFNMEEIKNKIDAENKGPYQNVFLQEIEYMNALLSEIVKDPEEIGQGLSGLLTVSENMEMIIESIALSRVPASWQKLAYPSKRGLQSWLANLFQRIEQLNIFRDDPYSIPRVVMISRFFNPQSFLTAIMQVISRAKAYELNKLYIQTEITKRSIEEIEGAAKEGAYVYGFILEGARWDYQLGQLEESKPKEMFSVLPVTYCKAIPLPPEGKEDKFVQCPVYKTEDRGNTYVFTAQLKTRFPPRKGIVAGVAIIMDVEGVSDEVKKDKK

## Dyh4 (from UniProt O76506 1-4589)
[1]
  binding: binds

B1: pdd1 (programmed DNA degradation 1) (protein, UniProt Q94996 1-499)
chain: MFTVKSLQQFQAKKAINISIKKMSQKKSLKQKRKQDYSSDTEEEEEDQYEVEKILDSRFNPKTKQKEYLVKWENWPIEDSTWEPYEHLSNVKEIVQAFEKKQKANVMPQPTGPITRVNAQKDPQKKNRLSLNSSISKSLPQEEEIQTSKEDSKKQAVKKFQPASRRKSISSQSDSDLQAEEVPQQPESKKDKNDGAFEEPNNADADETELVFEEIVDKRILDGQTEYLIRFQNVSQPQWVDVGQLIAIKDDVIAYEDKIAAQSQLNKTKNLKENAKHSSQQQQSENNNLETEEVEEDKDSKKRSLLANSKRPTAKRSQPFNQDEEKEKSVTQPTSNLGSKGQSQQVEKEQATNSQTQQPQTAHRSGSRLSQIQSNANQVTQQAQQLSNTNNSSSTSLEVSSKMPSQMSQKRRPIELTEIQQGDFKTDNVDKIEIQGDFNDIMTSRFEVFWKIRQDNVTPASQVYSASYLRRYEPQVLIDFLLQHSNQSQLRQANQQLTH
[2]
  binding: binds

B2: Smc4 (protein, UniProt Q6PUA5 1-1359)
chain: MNQESTSKVQAQMEEEIPTAKSVVKHTQSLLKNSVLRQNLAGKSEQRLIVKQIVLENFKSYQGRQVIGPFHKRFTSVVGPNGSGKSNLIESLLFVFGKKASWMRLKKLEQLIHNSSKHQNVKKASVEVTFHEIRDKEGEEYEVIPGTEFTVRRTVNKSSVSKYEINDKEVSHVEVTDTLKQKGIDLTNNRFLILQGEVEQISLMKPRSGDPEKPGLLEYLEDIIGSNQFKEDIEKKDEEYEVLQNERREKGERMRIHEADLEKLQESKNLAIEYIRNEKLSYQMTNIIGQIDLLRSKKDIEKFETKIKQNEQQNVEMREKFKQQLKENEQVIKEYKQSKAEIEKKDYEVQKYKGQLKKLNERDELIRQKLVLETENQTKAEKQLEDLQDEYKKAIRDQKEYQSELPEKQDRLRKLLTKKDDEDEKLRELKSKVNNENQKLVKEKKEMEKKLQPIKEKKLEVQSKRDTLQNRFTLISQDATAIQNEYEKNQNELEKAKQLIEDQHTLIKQIAQAIQAIEAGYEKQEADNKECRIIEEKIIKAISECKQKIDQTKQSNQDSQTRNKVLNELMIAQQQGKLRGICGRLGDLAAINEEYDVAITTACGQLDNIIVDRYDDAQNAVNYLRKEKIGKAQFIALDKIEHNRQYMEKQFQCPRGSQRLFDLIQFKDQKYKVAFYFALRNTLVCDNIDLATEIAYGQQRHRVVTKKGELIDDSGVMSGGGAARRGGVASQLKVEISPEEVERYQAEYSRNQQDLEQIRETIQNTNKQLNTFIQEKMYLVKQLEAKKFDQQLQEDNVTRCQNRLKALQKQMDEQEQNAKERQVIKQELEKFESEYHEYDGQIMELNKKITDIDEKINKSGGQELKQQQEICKNIQNQTLELQADVNKKTAKLKDLEKTLKNNEREKNETQERIKKIKASIDPLKDQQQKLEEDAVKVFKDQQQAGQQLAMLQEQQKQRDEQKAGIEKIIKDMKDALEKLKKEKDDFEAKINKAKEDQNRSEHVIANNRNTYKEITKSYDFLQFIDEIAGYQINESEDKKSDDQNNLDNISILEESIMQSMMDEEKNTQDKEDDEEIPENNDKQNKKIRSSKNTKKISSIDVYDDIGQELIEQLENHRESLKIEKAKAEEKLKSMTNDANITTITEFKNKYIEFKSKKEEFERVKNRISELKVDIDRLKKERFEKFMSGFNLISAKLKETYQTLTNGGDAELELIDSLDPFSDGVNFTVRPPKKSWKQISKLSGGEKTLSSLSLVFALHYYKPTPLYFMDEIDAALDFKNVSIVGNYIQERTKNAQFIIISLRNNMFELANKLVGVYKTYDTTKTIAIIPELIYQKIQHLNDDKTDTNQNQNEDKDNKSN
[3]
  binding: binds

— article PMC10741905
